{
  "sequences": {"note": "Chains of the proteins cited; added tags and fusions are not shown.", "UniProt Q0JBA9, entry or part of it": "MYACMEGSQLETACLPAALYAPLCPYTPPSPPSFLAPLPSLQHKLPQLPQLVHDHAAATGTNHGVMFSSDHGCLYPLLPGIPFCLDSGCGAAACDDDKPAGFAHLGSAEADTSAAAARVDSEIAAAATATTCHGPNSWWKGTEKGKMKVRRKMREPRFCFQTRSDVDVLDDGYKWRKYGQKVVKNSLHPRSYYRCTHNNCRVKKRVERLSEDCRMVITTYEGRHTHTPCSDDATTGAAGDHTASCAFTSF"},
  "source": "paper PMC7819943",
  "about": "“Rice protein-binding microarrays: a tool to detect cis-acting elements near promoter regions in rice”",
  "note": "This is one part of the list.",
  "data": [
    {"target": "OsWRKY34 (Oryza sativa, UniProt Q0JBA9 1-250)", "assay": "protein-binding microarray (RPBM); PBS, 2% BSA, 51.3 ng/ul salmon testes DNA, 50 uM zinc acetate, 200 nM TF, 25 C, 1 h; high values mean tight binding", "conditions": "protein: recombinant; tags: N-terminal polyhistidine and DsRed monomer fusion (pET32a); label: CyDye5-dUTP incorporated in the synthesized complementary strand; 3' TTTTT single-stranded linker to array surface; dsDNA, one strand shown", "procedure,_shortened": "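Per-feature fluorescence intensity (arbitrary units), read on an Axon 4000B scanner, is the binding signal. Transcription factors carrying an N-terminal polyhistidine tag and DsRed fusion were expressed in E. coli BL21-CodonPlus and purified on Ni–NTA. A custom Agilent array, made double-stranded by primer extension with Cy5-dUTP and blocked with 2% BSA, was incubated with 200 nM protein in PBS, 2% BSA, salmon testes DNA and 50 µM zinc acetate at 25 °C for 1 h and then washed.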", "values": [
      {"sequence": "AAAGGTGATCGAAAACTTTATATTTCTGGTTTTTGCACTACGGAGTCACCTAGTGCAG", "binding signal": "8620 fluorescence intensity (a.u.)"},
      {"sequence": "CACTTATGTCTCTCTCTCTCTCTCTCTCTCTCTCTCGCACCGGAGTCACCTAGTGCAG", "binding signal": "11000 fluorescence intensity (a.u.)"},
      {"sequence": "TTACCTTTACATCCATCCATCAGTTTCAGATAAAATATTTCGGAGTCACCTAGTGCAG", "binding signal": "8570 fluorescence intensity (a.u.)"},
      {"sequence": "CCGCCCTCGACTCCCGTCTCCTCGCCTGCCGCTGGCGCCGCGGAGTCACCTAGTGCAG", "binding signal": "8490 fluorescence intensity (a.u.)"},
      {"sequence": "GATGTTTTCACTTCTTTTTCAGGTTGACTGTCATAATTTTCGGAGTCACCTAGTGCAG", "binding signal": "11800 fluorescence intensity (a.u.)"},
      {"sequence": "CCCGCGCCGGACGCCCGCCAATGAGCATTCCCGGTTTTTTCGGAGTCACCTAGTGCAG", "binding signal": "8280 fluorescence intensity (a.u.)"},
      {"sequence": "AGGGTTTCGCGTCACGGAGGGGAGGGGATCGAGAGCTCCTCGGAGTCACCTAGTGCAG", "binding signal": "12000 fluorescence intensity (a.u.)"},
      {"sequence": "CCCTGGAGCTGTAGTACTACTGTTTTCTTTTTCCCTTTTACGGAGTCACCTAGTGCAG", "binding signal": "9250 fluorescence intensity (a.u.)"},
      {"sequence": "CCACTTTCTCTCTCATCTCACATTCTCTTTCTCTCTCTCTCGGAGTCACCTAGTGCAG", "binding signal": "8340 fluorescence intensity (a.u.)"},
      {"sequence": "GGTGGAGGTGGAGATATATCCATTATACATGTGTCATGTGCGGAGTCACCTAGTGCAG", "binding signal": "13000 fluorescence intensity (a.u.)"},
      {"sequence": "CTCTCTCTCTCTCTCTCTCTCTCTCTTGCCATTTAAAAGACGGAGTCACCTAGTGCAG", "binding signal": "9660 fluorescence intensity (a.u.)"},
      {"sequence": "ATAGAGGGAGCTTCACCTGTTGCTTTGCGCCACGTGTCATCGGAGTCACCTAGTGCAG", "binding signal": "8620 fluorescence intensity (a.u.)"},
      {"sequence": "AGTTCGGATCCAAACTTCAGTCCTTTTCCATCACATCAACCGGAGTCACCTAGTGCAG", "binding signal": "8540 fluorescence intensity (a.u.)"},
      {"sequence": "GAGATATTGGACATATTAGGTTTTTACGAGTAATTTGCATCGGAGTCACCTAGTGCAG", "binding signal": "8430 fluorescence intensity (a.u.)"},
      {"sequence": "CTGTCCGAGGTCGTTTACTGGTCAGATATATCCATATATTCGGAGTCACCTAGTGCAG", "binding signal": "8330 fluorescence intensity (a.u.)"},
      {"sequence": "AGCCGGGGAGGGGTAGTTTTAGGGTTCGGAGGGCACCATGCGGAGTCACCTAGTGCAG", "binding signal": "15700 fluorescence intensity (a.u.)"},
      {"sequence": "TCAGGCTCTCACTCGCGCTGCATGCCACACTGCTTCTTCTCGGAGTCACCTAGTGCAG", "binding signal": "16400 fluorescence intensity (a.u.)"},
      {"sequence": "GGTGAAGCTCTGCGCTGACACGTTGATGCAGCGGAGCACGCGGAGTCACCTAGTGCAG", "binding signal": "18900 fluorescence intensity (a.u.)"},
      {"sequence": "TCTCTGACGCCAGATCAACTGCACGATTTCTCCAATCTTTCGGAGTCACCTAGTGCAG", "binding signal": "8860 fluorescence intensity (a.u.)"},
      {"sequence": "AGAGGTTTGGGGTTGGTTCATCTCGCGGGCTTGGGCGGCGCGGAGTCACCTAGTGCAG", "binding signal": "14400 fluorescence intensity (a.u.)"},
      {"sequence": "ATGTTGTTCTCTCCCTATTTATCTCTCAGCGTCTCTATGTCGGAGTCACCTAGTGCAG", "binding signal": "9510 fluorescence intensity (a.u.)"},
      {"sequence": "AGCGATACTCTACTGCTACCTTGTCCCAACATGCTGGGCTCGGAGTCACCTAGTGCAG", "binding signal": "8260 fluorescence intensity (a.u.)"},
      {"sequence": "TCCTTAATTTTCATTTCTTTTTCTTAACCACTTAATTACTCGGAGTCACCTAGTGCAG", "binding signal": "8930 fluorescence intensity (a.u.)"},
      {"sequence": "CACTTCTCCACGCCGCCGTCGCTGAGTTCTCCTTATCTTCCGGAGTCACCTAGTGCAG", "binding signal": "11400 fluorescence intensity (a.u.)"},
      {"sequence": "CATGTTGTAGCACATTTGGCATCTCTCCAGTAATGACTAACGGAGTCACCTAGTGCAG", "binding signal": "8060 fluorescence intensity (a.u.)"},
      {"sequence": "TTTACATATTGACTTTTCGAGCTCATTTGTCATGCCCCGTCGGAGTCACCTAGTGCAG", "binding signal": "8620 fluorescence intensity (a.u.)"},
      {"sequence": "GCTGGCTTGACCTGTTCTTCCGGACTCCGTTTCGTTCCCACGGAGTCACCTAGTGCAG", "binding signal": "9430 fluorescence intensity (a.u.)"},
      {"sequence": "GTATAGTACATGTAGCTCTTAAAATTTTGTTGCAATCGCACGGAGTCACCTAGTGCAG", "binding signal": "9830 fluorescence intensity (a.u.)"},
      {"sequence": "GCTCTCTCATTTTCATAATTTAAGTCATTAGTTTTATTCTCGGAGTCACCTAGTGCAG", "binding signal": "9180 fluorescence intensity (a.u.)"},
      {"sequence": "GTCATCCTCTCCTACACCAGTACCGGTCATCCAACACATTCGGAGTCACCTAGTGCAG", "binding signal": "9280 fluorescence intensity (a.u.)"},
      {"sequence": "TCACGCTGACCAAACACCATCTGTTATTCTGTTTGTTTGTCGGAGTCACCTAGTGCAG", "binding signal": "9030 fluorescence intensity (a.u.)"},
      {"sequence": "GTGCTGCGCGCGTCCGTTTTCTTGGCTGTTCTTGGGTGGGCGGAGTCACCTAGTGCAG", "binding signal": "8690 fluorescence intensity (a.u.)"},
      {"sequence": "TCCATCCAGCTTCAGCCGCCACCGGTCTCCATCCCGTCCTCGGAGTCACCTAGTGCAG", "binding signal": "9330 fluorescence intensity (a.u.)"},
      {"sequence": "TTGGTTGGGTGCAGCGTAGCAATCAGTTGGGCGGGTGGGGCGGAGTCACCTAGTGCAG", "binding signal": "14000 fluorescence intensity (a.u.)"},
      {"sequence": "GTGGCTCGCGATCATATTGTCTCTATGCTTATCCATGTGCCGGAGTCACCTAGTGCAG", "binding signal": "9070 fluorescence intensity (a.u.)"},
      {"sequence": "AAGCTAAATATATCCGTACTCACGCTTTTTTAAACTATTTCGGAGTCACCTAGTGCAG", "binding signal": "8220 fluorescence intensity (a.u.)"},
      {"sequence": "CCAGACAGCCTCTCCTTGCCGTTGATCCACACACACACAACGGAGTCACCTAGTGCAG", "binding signal": "9480 fluorescence intensity (a.u.)"},
      {"sequence": "AGCAGCTGCTCAAGATTGCTCGTTGGTGTGGGAGAAGATCCGGAGTCACCTAGTGCAG", "binding signal": "9570 fluorescence intensity (a.u.)"},
      {"sequence": "GGCCATCTCTTTCCATTCTCTCCTCACATCATCTTGATAGCGGAGTCACCTAGTGCAG", "binding signal": "12100 fluorescence intensity (a.u.)"},
      {"sequence": "CCCCAAGCCTTTATTCCCTCCCATTTCTCCCGCTCACTTTCGGAGTCACCTAGTGCAG", "binding signal": "8190 fluorescence intensity (a.u.)"},
      {"sequence": "CCTATTCTAACACTGACGGGTGGGTCTCACAGGGTGACTCCGGAGTCACCTAGTGCAG", "binding signal": "16900 fluorescence intensity (a.u.)"},
      {"sequence": "ACGCATTTCTCGTCTTCACAAACGTACGTACGGTCTCACTCGGAGTCACCTAGTGCAG", "binding signal": "8090 fluorescence intensity (a.u.)"},
      {"sequence": "GACTCATTATTATCTGGCTAGTTCATTTTCATGTTATTTTCGGAGTCACCTAGTGCAG", "binding signal": "14900 fluorescence intensity (a.u.)"},
      {"sequence": "ACTTGCAGTTCCAGGTTATTGAGGTCAGACGGGTCGTTGACGGAGTCACCTAGTGCAG", "binding signal": "8800 fluorescence intensity (a.u.)"},
      {"sequence": "CCACTGCTGATGCTCCTCTTCTTGCTCGGTTTCTTTCTCCCGGAGTCACCTAGTGCAG", "binding signal": "8350 fluorescence intensity (a.u.)"},
      {"sequence": "CCATTTTTGTTAGACGCGCTAGTGGAACATCCATCTTTCTCGGAGTCACCTAGTGCAG", "binding signal": "8210 fluorescence intensity (a.u.)"},
      {"sequence": "GCCGCGCGCTCGTCCACCGCTGCTGCCACCCCGCTCCACTCGGAGTCACCTAGTGCAG", "binding signal": "10700 fluorescence intensity (a.u.)"},
      {"sequence": "CTCGCTTCCGCCACCAACCCCTTCGCGAACCTTCTAGAACCGGAGTCACCTAGTGCAG", "binding signal": "10200 fluorescence intensity (a.u.)"},
      {"sequence": "TTAATTACTTCCTTTTCTTTTCTTTTCTTTTCCTTTTTTTCGGAGTCACCTAGTGCAG", "binding signal": "8110 fluorescence intensity (a.u.)"},
      {"sequence": "GTTCTGATGTCCACCGTGCAGGTTCATATGCTTCTGCCAACGGAGTCACCTAGTGCAG", "binding signal": "8410 fluorescence intensity (a.u.)"},
      {"sequence": "TTAATATTTTATGTGTGACTTGTCTTTTTAATTTTTTTATCGGAGTCACCTAGTGCAG", "binding signal": "8700 fluorescence intensity (a.u.)"},
      {"sequence": "GTGTTCTTGTGTGTGTGTGTGTGTGTGTGTGTGTGTGTGTCGGAGTCACCTAGTGCAG", "binding signal": "9670 fluorescence intensity (a.u.)"},
      {"sequence": "CCCAACTGTTCCACTTGACGCATCGATCGATATCTGAATTCGGAGTCACCTAGTGCAG", "binding signal": "9740 fluorescence intensity (a.u.)"},
      {"sequence": "CACTTTGTATATTCTCGAGTGGATTTGCAATATATTGGTGCGGAGTCACCTAGTGCAG", "binding signal": "8740 fluorescence intensity (a.u.)"}
    ]}
  ]
}
